Conditions: mean over coupons (six DMA, two TMAH); for corrosion rate / dissolution rate, following three weeks: second testing period

Structure (SMILES)	corrosion rate / dissolution rate, first week [µm•year^-1]	corrosion rate / dissolution rate, following three weeks [µm•year^-1]
CNC [DMA, dimethylamine, reference compound]	0.992 ± 0.084	1.001 ± 0.052
C[N+](C)(C)C.[OH-] [TMAH, Tetramethylammonium hydroxide]	0.290 ± 0.045	0.043 ± 0.018

Reference: patent EP2348142B1, “Method and composition for removing scale deposits formed on a metal surface within a steam generating system” (Westinghouse Electric Company LLC, priority 2010, dated 2011)
